# Results: the supplement of paper PMC12067093, “Discovery and optimisation of a covalent ligand for TRIM25 and its application to targeted protein ubiquitination” (Chemical Science, 2025)
# Chains of the proteins cited; added tags and fusions are not shown. Lines headed by an entry give the natural chain unless they say otherwise; changes in a name come on top.
# UniProt Q6P2P2: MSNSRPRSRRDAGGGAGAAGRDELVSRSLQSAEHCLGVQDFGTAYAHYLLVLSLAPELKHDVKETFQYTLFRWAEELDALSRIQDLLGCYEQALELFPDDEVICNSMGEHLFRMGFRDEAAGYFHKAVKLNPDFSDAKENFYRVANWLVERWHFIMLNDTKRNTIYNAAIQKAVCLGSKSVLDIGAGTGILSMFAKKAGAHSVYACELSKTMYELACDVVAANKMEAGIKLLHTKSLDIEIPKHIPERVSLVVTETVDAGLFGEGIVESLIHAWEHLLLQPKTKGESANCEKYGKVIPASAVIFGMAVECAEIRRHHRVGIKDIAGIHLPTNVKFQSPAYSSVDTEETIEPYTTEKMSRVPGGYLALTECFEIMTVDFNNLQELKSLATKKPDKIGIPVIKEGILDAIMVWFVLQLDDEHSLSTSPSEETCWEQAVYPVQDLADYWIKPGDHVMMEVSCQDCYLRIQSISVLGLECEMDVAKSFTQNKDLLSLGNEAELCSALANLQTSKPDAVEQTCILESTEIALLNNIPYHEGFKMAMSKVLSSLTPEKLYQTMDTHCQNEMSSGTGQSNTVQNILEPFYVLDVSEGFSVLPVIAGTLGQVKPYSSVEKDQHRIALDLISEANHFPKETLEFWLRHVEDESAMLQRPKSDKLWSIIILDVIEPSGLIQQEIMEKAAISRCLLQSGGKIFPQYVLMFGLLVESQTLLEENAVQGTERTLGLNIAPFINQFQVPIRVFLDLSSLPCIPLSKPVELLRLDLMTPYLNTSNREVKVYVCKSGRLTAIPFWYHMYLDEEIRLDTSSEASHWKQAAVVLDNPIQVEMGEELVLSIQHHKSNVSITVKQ
# UniProt Q99873, whole entry, looked up: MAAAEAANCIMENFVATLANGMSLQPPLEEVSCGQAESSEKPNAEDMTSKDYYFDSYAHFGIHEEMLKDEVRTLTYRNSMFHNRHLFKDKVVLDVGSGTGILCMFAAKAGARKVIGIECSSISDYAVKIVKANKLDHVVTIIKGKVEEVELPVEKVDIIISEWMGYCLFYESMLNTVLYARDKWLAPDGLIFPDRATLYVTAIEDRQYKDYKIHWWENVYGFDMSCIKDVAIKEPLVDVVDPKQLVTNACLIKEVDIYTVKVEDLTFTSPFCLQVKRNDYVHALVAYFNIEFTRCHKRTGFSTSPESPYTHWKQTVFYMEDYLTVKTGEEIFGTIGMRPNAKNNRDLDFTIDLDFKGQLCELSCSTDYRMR
# UniProt P24158: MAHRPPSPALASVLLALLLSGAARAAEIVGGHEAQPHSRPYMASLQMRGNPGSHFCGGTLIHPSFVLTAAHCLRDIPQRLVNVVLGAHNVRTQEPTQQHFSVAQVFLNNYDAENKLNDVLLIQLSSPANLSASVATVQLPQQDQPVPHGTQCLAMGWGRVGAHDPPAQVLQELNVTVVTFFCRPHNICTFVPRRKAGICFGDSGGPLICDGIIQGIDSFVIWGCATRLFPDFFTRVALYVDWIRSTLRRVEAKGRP
# UniProt P10644, whole entry, looked up: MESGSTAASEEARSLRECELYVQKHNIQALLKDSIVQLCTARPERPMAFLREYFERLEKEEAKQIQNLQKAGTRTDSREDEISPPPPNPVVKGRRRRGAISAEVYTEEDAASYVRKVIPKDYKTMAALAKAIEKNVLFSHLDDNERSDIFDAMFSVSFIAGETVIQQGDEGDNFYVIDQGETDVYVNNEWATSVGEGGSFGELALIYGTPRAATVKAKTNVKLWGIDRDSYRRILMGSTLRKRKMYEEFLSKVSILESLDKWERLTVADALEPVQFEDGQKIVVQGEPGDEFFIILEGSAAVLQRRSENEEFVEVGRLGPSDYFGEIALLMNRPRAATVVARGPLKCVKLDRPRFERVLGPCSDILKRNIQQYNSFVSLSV
# UniProt P60891: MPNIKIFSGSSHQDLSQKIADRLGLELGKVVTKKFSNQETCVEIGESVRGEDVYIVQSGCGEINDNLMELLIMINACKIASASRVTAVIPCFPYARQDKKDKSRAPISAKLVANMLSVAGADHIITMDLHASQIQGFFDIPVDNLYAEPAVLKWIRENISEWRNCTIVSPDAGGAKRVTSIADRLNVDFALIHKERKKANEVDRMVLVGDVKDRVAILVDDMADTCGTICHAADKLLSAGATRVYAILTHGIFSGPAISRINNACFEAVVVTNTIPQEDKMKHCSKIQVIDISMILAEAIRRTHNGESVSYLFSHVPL
# UniProt Q5THK1: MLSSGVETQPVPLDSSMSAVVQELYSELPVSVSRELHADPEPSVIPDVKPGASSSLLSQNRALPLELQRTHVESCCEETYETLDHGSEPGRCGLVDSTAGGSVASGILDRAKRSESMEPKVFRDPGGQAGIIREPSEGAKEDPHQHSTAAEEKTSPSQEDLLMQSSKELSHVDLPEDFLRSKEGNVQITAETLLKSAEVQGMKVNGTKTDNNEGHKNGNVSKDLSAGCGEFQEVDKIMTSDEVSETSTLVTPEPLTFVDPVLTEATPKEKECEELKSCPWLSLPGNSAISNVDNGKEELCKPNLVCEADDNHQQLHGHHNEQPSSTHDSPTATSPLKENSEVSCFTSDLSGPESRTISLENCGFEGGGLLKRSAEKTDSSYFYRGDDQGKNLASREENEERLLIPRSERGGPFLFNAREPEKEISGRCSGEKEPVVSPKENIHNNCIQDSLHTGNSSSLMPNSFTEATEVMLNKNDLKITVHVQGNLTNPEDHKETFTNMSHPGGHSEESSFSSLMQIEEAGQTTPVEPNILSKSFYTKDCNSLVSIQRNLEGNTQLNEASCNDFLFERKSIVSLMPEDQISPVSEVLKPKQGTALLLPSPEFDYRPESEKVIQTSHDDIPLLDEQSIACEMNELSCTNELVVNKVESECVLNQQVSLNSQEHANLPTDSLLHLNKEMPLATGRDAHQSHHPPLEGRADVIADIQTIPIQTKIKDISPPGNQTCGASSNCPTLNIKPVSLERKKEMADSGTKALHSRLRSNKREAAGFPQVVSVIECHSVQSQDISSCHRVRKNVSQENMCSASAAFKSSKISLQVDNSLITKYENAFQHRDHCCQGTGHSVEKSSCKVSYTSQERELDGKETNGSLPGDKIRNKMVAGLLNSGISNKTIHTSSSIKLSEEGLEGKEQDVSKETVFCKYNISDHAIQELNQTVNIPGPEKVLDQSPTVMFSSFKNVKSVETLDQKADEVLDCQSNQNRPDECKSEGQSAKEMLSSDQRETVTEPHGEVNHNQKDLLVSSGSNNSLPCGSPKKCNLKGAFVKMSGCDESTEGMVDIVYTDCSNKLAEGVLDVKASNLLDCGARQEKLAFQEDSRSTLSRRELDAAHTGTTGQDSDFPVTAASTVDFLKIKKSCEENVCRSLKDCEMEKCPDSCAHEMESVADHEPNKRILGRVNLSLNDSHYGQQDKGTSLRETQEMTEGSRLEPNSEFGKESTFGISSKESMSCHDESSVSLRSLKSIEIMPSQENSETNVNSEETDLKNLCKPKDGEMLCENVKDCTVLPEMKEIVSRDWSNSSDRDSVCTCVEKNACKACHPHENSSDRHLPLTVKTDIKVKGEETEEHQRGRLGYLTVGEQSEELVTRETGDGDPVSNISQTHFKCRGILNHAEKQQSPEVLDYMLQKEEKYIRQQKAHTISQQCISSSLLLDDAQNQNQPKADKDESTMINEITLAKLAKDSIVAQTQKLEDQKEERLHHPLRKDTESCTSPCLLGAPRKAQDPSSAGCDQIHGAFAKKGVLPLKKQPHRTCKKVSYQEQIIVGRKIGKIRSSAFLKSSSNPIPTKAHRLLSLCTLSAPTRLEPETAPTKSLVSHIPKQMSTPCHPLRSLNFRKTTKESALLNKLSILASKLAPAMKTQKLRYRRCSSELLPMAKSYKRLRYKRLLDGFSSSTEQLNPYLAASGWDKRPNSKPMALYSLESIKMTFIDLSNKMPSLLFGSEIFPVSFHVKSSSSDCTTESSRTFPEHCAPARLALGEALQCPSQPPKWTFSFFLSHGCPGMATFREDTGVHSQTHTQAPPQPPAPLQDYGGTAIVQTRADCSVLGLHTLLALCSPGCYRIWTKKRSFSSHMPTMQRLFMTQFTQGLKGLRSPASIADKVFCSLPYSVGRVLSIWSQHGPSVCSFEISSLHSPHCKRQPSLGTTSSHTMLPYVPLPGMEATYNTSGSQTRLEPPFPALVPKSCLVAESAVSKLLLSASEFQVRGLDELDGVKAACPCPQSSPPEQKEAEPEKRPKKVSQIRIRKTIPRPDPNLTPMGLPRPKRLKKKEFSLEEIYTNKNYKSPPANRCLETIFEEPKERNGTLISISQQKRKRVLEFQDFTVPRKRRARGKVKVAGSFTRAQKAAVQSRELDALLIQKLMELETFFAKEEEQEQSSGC
# UniProt O43172: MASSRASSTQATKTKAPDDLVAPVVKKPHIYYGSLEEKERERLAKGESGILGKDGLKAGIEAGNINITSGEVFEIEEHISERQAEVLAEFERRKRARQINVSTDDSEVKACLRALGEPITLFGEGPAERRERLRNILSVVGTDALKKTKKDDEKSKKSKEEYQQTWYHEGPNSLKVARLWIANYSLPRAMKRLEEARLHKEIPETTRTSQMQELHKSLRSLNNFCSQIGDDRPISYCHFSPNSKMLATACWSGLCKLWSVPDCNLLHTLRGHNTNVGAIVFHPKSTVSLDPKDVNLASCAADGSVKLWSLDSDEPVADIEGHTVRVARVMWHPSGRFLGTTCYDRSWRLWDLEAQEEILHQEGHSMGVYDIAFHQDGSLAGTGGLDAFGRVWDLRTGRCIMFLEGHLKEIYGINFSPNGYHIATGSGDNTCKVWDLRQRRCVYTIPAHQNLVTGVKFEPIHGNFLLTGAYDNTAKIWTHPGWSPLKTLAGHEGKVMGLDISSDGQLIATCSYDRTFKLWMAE
# UniProt O75569: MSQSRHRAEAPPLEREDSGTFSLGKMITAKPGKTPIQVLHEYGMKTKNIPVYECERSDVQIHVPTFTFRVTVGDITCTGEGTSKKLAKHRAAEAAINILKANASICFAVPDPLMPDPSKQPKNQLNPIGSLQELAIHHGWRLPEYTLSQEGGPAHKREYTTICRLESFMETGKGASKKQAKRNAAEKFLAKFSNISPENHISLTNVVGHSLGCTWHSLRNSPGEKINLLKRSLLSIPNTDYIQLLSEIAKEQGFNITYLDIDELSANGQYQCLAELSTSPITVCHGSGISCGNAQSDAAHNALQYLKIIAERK
# UniProt P05771, whole entry, looked up: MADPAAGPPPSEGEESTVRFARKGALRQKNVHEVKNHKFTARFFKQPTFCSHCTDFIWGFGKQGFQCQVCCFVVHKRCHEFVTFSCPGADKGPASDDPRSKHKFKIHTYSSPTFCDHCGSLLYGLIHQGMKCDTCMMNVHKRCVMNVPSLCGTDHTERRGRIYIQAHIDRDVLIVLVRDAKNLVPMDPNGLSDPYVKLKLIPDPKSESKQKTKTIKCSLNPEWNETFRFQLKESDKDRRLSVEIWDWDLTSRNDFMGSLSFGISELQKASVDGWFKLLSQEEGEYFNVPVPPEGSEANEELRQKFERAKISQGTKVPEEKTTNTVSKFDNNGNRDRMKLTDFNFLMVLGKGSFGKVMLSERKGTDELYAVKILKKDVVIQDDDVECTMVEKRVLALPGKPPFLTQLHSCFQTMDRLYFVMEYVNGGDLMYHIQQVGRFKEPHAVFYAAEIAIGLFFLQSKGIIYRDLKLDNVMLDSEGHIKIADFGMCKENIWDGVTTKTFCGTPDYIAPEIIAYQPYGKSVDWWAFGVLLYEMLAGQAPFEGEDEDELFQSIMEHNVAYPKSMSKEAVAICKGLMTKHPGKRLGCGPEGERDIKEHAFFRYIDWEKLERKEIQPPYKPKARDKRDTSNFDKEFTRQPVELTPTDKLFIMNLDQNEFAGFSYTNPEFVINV
# The list shows a part of the results.
# Compound: CC1Cc2ccccc2N1C(=O)C1CCCN(C1)C(=O)CCl (mixture of isomers) [TRIM25 ligand 11 (diastereomer mixture)]
# Assay: probe-labelled cysteine peptide fold change vs DMSO (competition) (log2 fold change); higher = less target engagement (more negative = stronger competition)
# Conditions: THP-1, incubation time: 4 h
# 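Note: competitive chemoproteomic profiling in live THP-1 cells with an iodoacetamide desthiobiotin (IA-DTB) probe, comparing probe-labelled peptide intensities in compound-treated cells against DMSO-treated controls.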
Target,probe-labelled cysteine peptide fold change (10 µM),probe-labelled cysteine peptide fold change (50 µM)
PRMT9_Q6P2P2_290_GESANCEK (UniProt Q6P2P2),0.0447,-0.0688
PRMT7_Q9NVM4_571_EAEPHPLWEYPCR (UniProt Q9NVM4),-0.116,-0.0711
PRKAR1B_P31321_18_GCELYVQLHGIQQVLK (UniProt P31321),0.0752,-0.251
PREX1_Q8TCU6_1612_CIMQATDIMR (UniProt Q8TCU6),0.0248,-0.186
PRMT1_Q99873_226_IHWWENVYGFDMSCIK (UniProt Q99873),0.165,0.03
PRKCA_P17252_132+135_CDTCDMNVHK (UniProt P17252),-0.0888,-0.162
PRTN3_P24158_56+72_GNPGSHFCGGTLIHPSFVLTAAHCLR (UniProt P24158),0.0297,-0.216
PRKAR1A_P10644_39_DSIVQLCTARPERPMAFLR (UniProt P10644),-0.134,-0.149
PRMT5_O14744_622_VWYEWAVTAPVCSAIHNPTGR (UniProt O14744),0.323,0.371
PRKCA_P17252_86_CHEFVTFSCPGADKGPDTDDPR (UniProt P17252),0.129,-0.0426
PRKDC_P78527_2093_DPTVHDDVLELEMDELNRHECMAPLTALVK (UniProt P78527),-0.0591,-0.179
PRPS1_P60891_265_INNACFEAVVVTNTIPQEDK (UniProt P60891),-0.218,0.109
PRKAR1A_P10644_362_VLGPCSDILK (UniProt P10644),-0.0417,-0.0498
PREX1_Q8TCU6_972_QAPLEPHPLCGLDFCPTNCHINLMEVSYPK (UniProt Q8TCU6),-0.0924,-0.159
PRPF31_Q8WWY3_247_MPACNIMLLGAQR (UniProt Q8WWY3),-0.19,-0.0614
PRR14L_Q5THK1_1503_AQDPSSAGCDQIHGAFAK (UniProt Q5THK1),-0.17,-0.185
PREX1_Q8TCU6_936_IACYQEFAAQLK (UniProt Q8TCU6),0.0577,0.0706
PRPF4_O43172_399_CIMFLEGHLK (UniProt O43172),-0.0298,0.125
PRPF8_Q6P2Q9_1896_GSELQLPFQACLK (UniProt Q6P2Q9),0.0462,0.133

Target,probe-labelled cysteine peptide fold change (10 µM),probe-labelled cysteine peptide fold change (50 µM)
PRKRA_O75569_77_VTVGDITCTGEGTSK (UniProt O75569),0.0604,0.0448
PRKDC_P78527_1455_LAAVVSACK (UniProt P78527),0.0308,-0.223
PRPF38A_Q8NAV1_158_VCDIILPR (UniProt Q8NAV1),0.0425,-0.0773
PRKDC_P78527_1904_INQVFHGSCITEGNELTK (UniProt P78527),0.0709,-0.162
PRKCB_P05771_143+151_CVMNVPSLCGTDHTER (UniProt P05771),0.196,0.281
PRUNE1_Q86TP1_313_QLAIFCPHVALQTTICEVLER (UniProt Q86TP1),-0.101,-0.225
PRR14L_Q5THK1_1730_SSSSDCTTESSR (UniProt Q5THK1),0.161,-0.155
PRKDC_P78527_1432_ITAQSIEELCAVNLYGPDAQVDR (UniProt P78527),-0.284,-0.156
PRKDC_P78527_42_GLGQECVLSSSPAVLALQTSLVFSR (UniProt P78527),0.147,0.0725
PRKDC_P78527_3001_DFWELASLDCYNHLAEWK (UniProt P78527),0.0402,0.0411
PRMT3_O60678_363_GGSVYPDICTISLVAVSDVNK (UniProt O60678),0.0998,0.415
PRPF8_Q6P2Q9_435_EHCPAGQPVK (UniProt Q6P2Q9),0.00907,-0.012
PRKDC_P78527_25_CGAALAGHQLIR (UniProt P78527),0.318,0.423
PRPS2_P11908_226+230_VAILVDDMADTCGTICHAADK (UniProt P11908),0.0546,0.237
PREX2_Q70Z35_341_WFVCMAK (UniProt Q70Z35),-0.0181,0.206
PRKAA1_Q13131_425_SQSRPNDIMAEVCR (UniProt Q13131),-0.101,-0.0314
PRMT1_Q99873-3_15_AAAEAANCIMEVSCGQAESSEKPNAEDMTSK (UniProt Q99873),-0.221,0.0812
PRKCB_P05771_78+86_CHEFVTFSCPGADK (UniProt P05771),-0.0197,-0.0639
PRMT9_Q6P2P2_206_AGAHSVYACELSK (UniProt Q6P2P2),0.206,0.0703

# Some of the entries so far, with bars between the fields:
Target | probe-labelled cysteine peptide fold change (10 µM) | probe-labelled cysteine peptide fold change (50 µM)
PRKCA_P17252_86_CHEFVTFSCPGADKGPDTDDPR (UniProt P17252) | 0.129 | -0.0426
PRKDC_P78527_2093_DPTVHDDVLELEMDELNRHECMAPLTALVK (UniProt P78527) | -0.0591 | -0.179
PRPS1_P60891_265_INNACFEAVVVTNTIPQEDK (UniProt P60891) | -0.218 | 0.109
PRKAR1A_P10644_362_VLGPCSDILK (UniProt P10644) | -0.0417 | -0.0498
PREX1_Q8TCU6_972_QAPLEPHPLCGLDFCPTNCHINLMEVSYPK (UniProt Q8TCU6) | -0.0924 | -0.159
PRPF31_Q8WWY3_247_MPACNIMLLGAQR (UniProt Q8WWY3) | -0.19 | -0.0614
PRR14L_Q5THK1_1503_AQDPSSAGCDQIHGAFAK (UniProt Q5THK1) | -0.17 | -0.185
PREX1_Q8TCU6_936_IACYQEFAAQLK (UniProt Q8TCU6) | 0.0577 | 0.0706
PRPF4_O43172_399_CIMFLEGHLK (UniProt O43172) | -0.0298 | 0.125
PRPF8_Q6P2Q9_1896_GSELQLPFQACLK (UniProt Q6P2Q9) | 0.0462 | 0.133
PRKRA_O75569_77_VTVGDITCTGEGTSK (UniProt O75569) | 0.0604 | 0.0448
